Patent publication US8993782B2, “Cis-alkoxyspirocyclic biphenyl-substituted tetramic acid derivatives” (Bayer CropScience AG, priority 2006, dated 2015)
Some results were stated once for a whole list of compounds, not compound by compound.

What was measured:
Format in all cases: in vivo
[1] = tested on: Boophilus microplus; assay: Boophilus microplus test (BOOPMI injection); conditions: 20 μg/animal, injection into the abdomen
[2] = tested on: Myzus persicae; assay: Myzus test (MYZUPE spray treatment); conditions: 500 g/ha, sprayed chinese cabbage discs
[3] = tested on: Setaria viridis; assay: Herbicidal post-emergence action; conditions: 80 g/ha, assessment after about 3 weeks
[4] = tested on: Lucilia cuprina larvae; assay: Lucilia cuprina test (LUCICU); conditions: 100 ppm, treated horse meat
[5] = tested on: Tetranychus urticae; assay: Tetranychus test, OP-resistant (TETRUR spray treatment); conditions: sprayed bean leaf discs
[6] = tested on: Echinocloa crus-galli; assay: Herbicidal post-emergence action; conditions: 80 g/ha, assessment after about 3 weeks
[7] = tested on: Spodoptera frugiperda; assay: Spodoptera frugiperda test (SPODFR spray treatment); conditions: 500 g/ha, sprayed maize leaf discs
[8] = tested on: Echinocloa crus-galli; assay: Herbicidal pre-emergence action; conditions: 320 g/ha of a.i./ha, assessment after 3 weeks
[9] = tested on: Lolium multiflorum; assay: Herbicidal pre-emergence action; conditions: 320 g/ha of a.i./ha, assessment after 3 weeks
[10] = tested on: Setaria viridis; assay: Herbicidal pre-emergence action; conditions: 320 g/ha of a.i./ha, assessment after 3 weeks
[11] = tested on: Tetranychus urticae; assay: Tetranychus test, OP-resistant (TETRUR G), watering; conditions: 20 ppm, bean plants watered, after 14 days
[12] = tested on: Aphis gossypii; assay: Aphis gossypii test (APHIGO G), watering; conditions: 20 ppm, cotton plants watered, after 10 days
[13] = tested on: Phaedon cochleariae; assay: Phaedon test (PHAECO spray treatment); conditions: 500 g/ha, sprayed chinese cabbage discs

Structure (SMILES) | activity (100% = none of the ticks has laid fertile eggs) [1] | activity (aphids killed) [2] | herbicidal activity [3] | activity (kill of larvae) [4] | activity (spidermites killed) ([5]; 100 g/ha) | herbicidal activity [6] | activity (caterpillars killed) [7] | herbicidal activity [8] | herbicidal activity [9] | herbicidal activity [10] | activity (kill of spidermites) [11] | activity (kill of aphids) [12] | activity (spidermites killed) ([5]; 20 g/ha) | activity (beetle larvae killed) [13]
CO[C@H]1CC[C@]2(CC1)NC(=O)C(c1cc(-c3ccc(F)cc3)ccc1C)=C2O [I-a-1] | ≥ 80% | ≥ 80% | ≥ 80% | ≥ 80% | > 80% | ≥ 80% | ≥ 80% |  |  |  |  |  |  | 
CO[C@H]1CC[C@]2(CC1)NC(=O)C(c1cc(-c3ccc(F)cc3)ccc1C)=C2OC(C)=O [I-b-1] | ≥ 80% | ≥ 80% | ≥ 80% | ≥ 80% | > 80% | ≥ 80% | ≥ 80% | ≥ 80% | ≥ 80% | ≥ 80% | ≥ 80% |  |  | 
COC1CCC2(CC1)NC(=O)C(c1c(C)ccc(-c3cc(F)c(F)c(F)c3)c1C)=C2O (stereo not drawn) [I-a-3] |  | ≥ 80% |  |  |  |  | ≥ 80% | ≥ 80% | ≥ 80% | ≥ 80% | ≥ 80% | ≥ 80% | ≥ 80% | ≥ 80%
